Experimental data taken from paper PMC8533404.
These are yes or no findings as the source states them, for the method shown. In cells and extracts the contact can be indirect. Some binding calls cover weakened binding; strength is not graded here.

T1: Recombinant mambalgin-2 (Dendroaspis polylepis) (UniProt P0DKS3)
T1 sequence: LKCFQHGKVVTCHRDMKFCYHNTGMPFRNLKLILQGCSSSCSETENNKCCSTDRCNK

B1: ASIC1a subunit (protein, UniProt P78348-2 1-528)
chain: MELKAEEEEVGGVQPVSIQAFASSSTLHGLAHIFSYERLSLKRALWALCFLGSLAVLLCVCTERVQYYFHYHHVTKLDEVAASQLTFPAVTLCNLNEFRFSQVSKNDLYHAGELLALLNNRYEIPDTQMADEKQLEILQDKANFRSFKPKPFNMREFYDRAGHDIRDMLLSCHFRGEVCSAEDFKVVFTRYGKCYTFNSGRDGRPRLKTMKGGTGNGLEIMLDIQQDEYLPVWGETDETSFEAGIKVQIHSQDEPPFIDQLGFGVAPGFQTFVACQEQRLIYLPPPWGTCKAVTMDSDLDFFDSYSITACRIDCETRYLVENCNCRMVHMPGDAPYCTPEQYKECADPALDFLVEKDQEYCVCEMPCNLTRYGKELSMVKIPSKASAKYLAKKFNKSEQYIGENILVLDIFFEVLNYETIEQKKAYEIAGLLGDIGGQMGLFIGASILTVLELFDYAYEVIKHKLCRRGKCQKEAKRSSADKGVALSLDDVKRHNPCESLRGHPAGMTYAANILPHHPARGTFEDFTC
B2: α-ENaC subunit (protein, UniProt P37088 1-669)
chain: MEGNKLEEQDSSPPQSTPGLMKGNKREEQGLGPEPAAPQQPTAEEEALIEFHRSYRELFEFFCNNTTIHGAIRLVCSQHNRMKTAFWAVLWLCTFGMMYWQFGLLFGEYFSYPVSLNINLNSDKLVFPAVTICTLNPYRYPEIKEELEELDRITEQTLFDLYKYSSFTTLVAGSRSRRDLRGTLPHPLQRLRVPPPPHGARRARSVASSLRDNNPQVDWKDWKIGFQLCNQNKSDCFYQTYSSGVDAVREWYRFHYINILSRLPETLPSLEEDTLGNFIFACRFNQVSCNQANYSHFHHPMYGNCYTFNDKNNSNLWMSSMPGINNGLSLMLRAEQNDFIPLLSTVTGARVMVHGQDEPAFMDDGGFNLRPGVETSISMRKETLDRLGGDYGDCTKNGSDVPVENLYPSKYTQQVCIHSCFQESMIKECGCAYIFYPRPQNVEYCDYRKHSSWGYCYYKLQVDFSSDHLGCFTKCRKPCSVTSYQLSAGYSRWPSVTSQEWVFQMLSRQNNYTVNNKRNGVAKVNIFFKELNYKTNSESPSVTMVTLLSNLGSQWSLWFGSSVLSVVEMAELVFDLLVIMFLMLLRRFRSRYWSPGRGGRGAQEVASTLASSPPSHFCPHPMSLSLSQPGPAPSPALTAPPPAYATLGPRPSPGGSAGASSSTCPLGGP
B3: γ-ENaC subunit (protein, UniProt P51170 1-649)
chain: MAPGEKIKAKIKKNLPVTGPQAPTIKELMRWYCLNTNTHGCRRIVVSRGRLRRLLWIGFTLTAVALILWQCALLVFSFYTVSVSIKVHFRKLDFPAVTICNINPYKYSTVRHLLADLEQETREALKSLYGFPESRKRREAESWNSVSEGKQPRFSHRIPLLIFDQDEKGKARDFFTGRKRKVGGSIIHKASNVMHIESKQVVGFQLCSNDTSDCATYTFSSGINAIQEWYKLHYMNIMAQVPLEKKINMSYSAEELLVTCFFDGVSCDARNFTLFHHPMHGNCYTFNNRENETILSTSMGGSEYGLQVILYINEEEYNPFLVSSTGAKVIIHRQDEYPFVEDVGTEIETAMVTSIGMHLTESFKLSEPYSQCTEDGSDVPIRNIYNAAYSLQICLHSCFQTKMVEKCGCAQYSQPLPPAANYCNYQQHPNWMYCYYQLHRAFVQEELGCQSVCKEACSFKEWTLTTSLAQWPSVVSEKWLLPVLTWDQGRQVNKKLNKTDLAKLLIFYKDLNQRSIMESPANSIEMLLSNFGGQLGLWMSCSVVCVIEIIEVFFIDFFSIIARRQWQKAKEWWAWKQAPPCPEAPRSPQGQDNPALDIDDDLPTFNSALHLPPALGTQVPGTPPPKYNTLRLERAFSNQLTDTQMLDEL
B4: ASIC3 subunit (protein, UniProt Q9UHC3 1-531)
chain: MKPTSGPEEARRPASDIRVFASNCSMHGLGHVFGPGSLSLRRGMWAAAVVLSVATFLYQVAERVRYYREFHHQTALDERESHRLIFPAVTLCNINPLRRSRLTPNDLHWAGSALLGLDPAEHAAFLRALGRPPAPPGFMPSPTFDMAQLYARAGHSLDDMLLDCRFRGQPCGPENFTTIFTRMGKCYTFNSGADGAELLTTTRGGMGNGLDIMLDVQQEEYLPVWRDNEETPFEVGIRVQIHSQEEPPIIDQLGLGVSPGYQTFVSCQQQQLSFLPPPWGDCSSASLNPNYEPEPSDPLGSPSPSPSPPYTLMGCRLACETRYVARKCGCRMVYMPGDVPVCSPQQYKNCAHPAIDAMLRKDSCACPNPCASTRYAKELSMVRIPSRAAARFLARKLNRSEAYIAENVLALDIFFEALNYETVEQKKAYEMSELLGDIGGQMGLFIGASLLTILEILDYLCEVFRDKVLGYFWNRQHSQRHSSTNLLQEGLGSHRTQVPHLSLGPRPPTPPCAVTKTLSASHRTCYLVTQL

The binders below were run against T1, Recombinant mambalgin-2 (Dendroaspis polylepis) (assay: pull-down; […] (100 mM TRIS, 150 mM NaCl, pH 8.0), […], TBS + 1 M NaCl + 0.5% Triton X-100, TBS + 0.5% Triton X-100; […]; only the target purified).

Binder	binding
B1	binds
B2	binds
B3	binds
B4	no binding
